# Measurements reported in PubChem BioAssay AID2685 (National Center for Advancing Translational Sciences (NCATS), 2010).
# Some of the results follow. Shown are side measurements of this screen, not its main read-out; they come without a call. Compounds called inactive in the main read-out are mostly missing here. Words in brackets tell the shape of the fitted curve; partial curves, single points and poor fits give uncertain potencies.
# Test: qHTS Assay for Lipid Storage Modulators in Drosophila S3 Cells;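 on cell number change: cells counted by Cell Tracker Red CMTPX staining in the red channel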
# Settings: BODIPY lipid droplet fluorescence, 18-24 h; for cell number change: measured here: cell count max response, cells fed with added oleic acid
# Procedure, shortened: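 Laser-scanning cytometry quantifies lipid droplet accumulation (500–530 nm total intensity; droplet/cell object ratio) in oleic acid-fed (400 uM added) Drosophila S3 cells treated with a concentration series. 20 uM Triacsin C defined 100% inhibition.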
# [1] = measured here: cell number channel AC50, cells fed with added oleic acid
# [2] = measured here: lipid fluorescence (Fed channel) AC50, cells fed with added oleic acid
SMILES,cell number change,AC50 [1],AC50 [2]
COc1ccc(/C=N/NC(=O)CNC(=O)/C=C/c2ccccc2OC)cc1,5.56%,"1.84 µM [rising, partial curve]",–
CCN(CC)C(=O)CN1C(=O)C2(OCC(C)(C)CO2)c2ccccc21,35.3%,"4.11 µM [rising, partial curve]",–
OCCNc1nc(N2CCN(Cc3ccccc3)CC2)nc2ccccc12,107%,"20.6 µM [rising, partial curve]","0.731 µM [rising, partial curve]"
COc1ccc(N2CCN(Cc3nc4scc(-c5ccccc5)c4c(=O)[nH]3)CC2)cc1,19.4%,–,–
CCCCn1c(=O)c(CCC(=O)OCC(=O)Nc2ccc(F)c(Cl)c2)nc2ccccc21,10.3%,–,–
N#CC1=C(S)N(c2ccc(F)cc2)C(c2ccco2)NC1=O (configuration not stated),4.15%,–,–
CC(=O)N1C(=O)C2(Nc3ccccc3N2)c2ccccc21,-0.255%,–,"1.46 µM [rising, partial curve]"
O=S(=O)(Nc1cccnc1)c1ccc2c(c1)OCCO2,-35%,"29.1 µM [falling, single point]","6.51 µM [falling, single point]"
CCOc1ccc(Cl)cc1S(=O)(=O)NCc1ccccn1,-13.5%,"0.00461 µM [rising, full curve, poor fit]",–
O=C(O)CN1C(=O)/C(=C\c2cccc(OCc3ccccc3F)c2)SC1=S,0.704%,–,"0.146 µM [falling, full curve, poor fit]"
O=C(CCCN1C(=O)c2ccccc2C1=O)Nc1nccs1,31.1%,–,–
Cc1c(-c2nnc(-c3ccc(C(F)(F)F)cc3)o2)cnn1-c1ccccc1,-1.36%,–,"1.3 µM [rising, full curve]"
Cc1nn(Cc2ccc(C(=O)Nc3ccccc3F)cc2)c(C)c1Cl,-32.1%,"29.1 µM [falling, single point]","20.6 µM [falling, single point]"
CCN(CC)CC#CCC(O)(c1ccccc1)c1ccccc1,-7.91%,–,"0.116 µM [falling, full curve, poor fit]"
CCCCNC(=S)NC(=O)c1ccc([N+](=O)[O-])cc1,29.4%,–,"20.6 µM [rising, partial curve, poor fit]"
O=C(OCC(=O)N1CCN(C(=O)c2ccco2)CC1)c1ccccc1O,-42.5%,"25.9 µM [falling, single point]","29.1 µM [falling, single point]"
CCCC(=O)N1CCN(c2nc3c(OC)ccc(Cl)c3s2)CC1,54.2%,"32.6 µM [rising, partial curve, poor fit]","29.1 µM [rising, single point]"
Clc1cccc(/C=N/N2CCN(Cc3ccccc3)CC2)c1,21.6%,–,–
CC[C@@]12C(=O)N(c3ccc(C)cc3)C(=O)N1[C@H](c1cccc(C)c1)[C@@H]1C(=O)N(Cc3ccccc3)C(=O)[C@@H]12,–,–,"0.366 µM [falling, single point]"
Cc1ccc(CC(=O)Nc2nc3ccccc3s2)cc1,-16.8%,–,"29.1 µM [falling, single point]"

# Rewritten bar-delimited: part of the list above
SMILES | cell number change | AC50 [1] | AC50 [2]
CCCC(=O)N1CCN(c2nc3c(OC)ccc(Cl)c3s2)CC1 | 54.2% | 32.6 µM [rising, partial curve, poor fit] | 29.1 µM [rising, single point]
Clc1cccc(/C=N/N2CCN(Cc3ccccc3)CC2)c1 | 21.6% | – | –
CC[C@@]12C(=O)N(c3ccc(C)cc3)C(=O)N1[C@H](c1cccc(C)c1)[C@@H]1C(=O)N(Cc3ccccc3)C(=O)[C@@H]12 | – | – | 0.366 µM [falling, single point]

# Next part.

SMILES,cell number change,AC50 [1],AC50 [2]
Cc1ccc(Cl)c(OCC(=O)NC2CCN(Cc3ccccc3)CC2)c1,16.2%,"0.411 µM [rising, full curve, poor fit]",–
Cc1ccc(-n2c(SCC(=O)Nc3ccc4c5c(cccc35)CC4)nc(O)c(C)c2=O)cc1,11.2%,–,–
NNC(=O)c1cc(-c2ccc(O)cc2)nc2ccc(Br)cc12,21.8%,–,"2.06 µM [rising, partial curve, poor fit]"
Cc1ccc(NC(=O)CN(C)C(=O)c2cc3c(s2)CCCCC3)cc1,-8.62%,–,"14.6 µM [falling, single point]"
c1ccc(Oc2nnc(-c3cccs3)c3ccccc23)cc1,–,–,"4.11 µM [rising, full curve, poor fit]"
O=C(O)C1C2C=CC(C2)C1C(=O)NCc1ccoc1 (configuration not stated),-10.1%,–,"4.61 µM [falling, full curve, poor fit]"
Cc1ccc(Cl)cc1NC(=O)COC(=O)c1ccc(COc2ccc3c(C)cc(=O)oc3c2)cc1,–,–,"0.58 µM [rising, partial curve, poor fit]"
CCOC(=O)c1c(C)[nH]c(C(=O)CN2C(=O)NC(C)(C)C2=O)c1C,-69%,"20.6 µM [falling, single point]",–
O=C(NCC1CCCO1)C1CCCN1C(=O)Nc1ccc(Cl)c(Cl)c1 (configuration not stated),-6.38%,–,"0.092 µM [falling, full curve, poor fit]"
CCCCN1C(=O)N(C)C2NC(=S)NC21 (configuration not stated),11.5%,–,–
CCCN(CCC)C(=O)CSc1nc2ccsc2c(=O)n1NC(=O)c1ccccc1,2.96%,–,"29.1 µM [rising, single point]"
CCn1c(SCc2nc3ccccc3s2)nnc1-c1cccs1,–,"2.06 µM [rising, partial curve]","2.31 µM [rising, partial curve]"
CCN1CCN(c2ccc(NC(=O)COc3ccccc3Cl)cc2)CC1,2.31%,–,"0.164 µM [rising, full curve, poor fit]"
Cc1nc(NC(=O)CC(C)C)sc1-c1csc(Nc2ccc(Cl)cc2)n1,-31.5%,"20.6 µM [falling, single point]","20.6 µM [falling, single point]"
CC1CCCN(CCCNC(=O)C2CCCN(c3ncnc4c3nc3n4CCCCC3)C2)C1 (configuration not stated),28.2%,–,"29.1 µM [falling, single point]"
COc1ccc(C(C)=O)cc1CN1C(=O)NC2(CCCC2)C1=O,11%,–,–
Cc1c(OC(C)C(=O)O)ccc2c(-c3ccccc3)cc(=O)oc12 (configuration not stated),-15.9%,–,"4.11 µM [falling, full curve, poor fit]"
Cn1c(=O)c(C(=O)CSc2nnc(Nc3ccccc3)s2)c(N)n(Cc2ccccc2)c1=O,-21%,–,–
CC(=O)c1ccc(NS(=O)(=O)c2cc(-c3cnc(C4CC4)o3)ccc2C)cc1,-7.08%,–,"6.51 µM [falling, single point]"
